Article doi:10.1101/2025.10.22.683813 (bioRxiv, 2025)
These are yes or no findings as the source states them, for the method shown. Some results given as binding are weak or reduced against the parent protein; the word gives no strength.

Tests used:
spNC-4 N-fragment [1] = experiment: cryo-EM structure
spNC-4-ABD N-fragment = experiment: co-purification by metal-ion affinity chromatography, with SDS-PAGE
spNC-4-GI N-fragment = experiment: as above
spNC-4 N-fragment [2] = experiment: as above

Measured: binding

B1: spNC-4 C-fragment (domain or fragment)
chain: MGIEIYEGKLTAEGLRFGIVASRFNHTLVDRLVEGAIDCIVRHGGRGEDITLVRVPGAWEIPVAADELARKEDIDAVIAFGDLIRG
binds: all assays above
